Out of some 310,000 compounds screened, about 17,000 (5.5%) were called active. The shares of active, inactive and inconclusive entries below differ from those in the screen. Calls follow the shape of the dose curve; as a rule, active = well fitted inhibition curve with a large enough effect; inconclusive = small, poorly fitted or top-dose-only effect, or effect the other way; inactive = no such curve, though single readings can be large or run the other way. Potencies of inconclusive entries are doubtful fits and often do not repeat.
Target: Nuclear receptor ROR-gamma (Mus musculus) (UniProt P51450)
Assay: qHTS for inhibitors of ROR gamma transcriptional activity; also: nearly all actives have a fitted effect of over 60% in size
Settings: Drosophila S2 Gal4-RORgamma UAS-luciferase reporter, 20 h; series mostly up to 53.6 µM
Outline: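 Using a luciferase readout, inhibitors were identified by reduced reporter activity in Drosophila cells coexpressing a copper-inducible Gal4–ROR gamma fusion and UAS-driven Photinus luciferase, incubated 20 hr after 700 uM copper sulfate.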
Potency is read from the fitted curve at half-maximal effect.

Chains of the proteins cited; added tags and fusions are not shown. Lines headed by an entry give the natural chain unless they say otherwise; changes in a name come on top.
UniProt P51450: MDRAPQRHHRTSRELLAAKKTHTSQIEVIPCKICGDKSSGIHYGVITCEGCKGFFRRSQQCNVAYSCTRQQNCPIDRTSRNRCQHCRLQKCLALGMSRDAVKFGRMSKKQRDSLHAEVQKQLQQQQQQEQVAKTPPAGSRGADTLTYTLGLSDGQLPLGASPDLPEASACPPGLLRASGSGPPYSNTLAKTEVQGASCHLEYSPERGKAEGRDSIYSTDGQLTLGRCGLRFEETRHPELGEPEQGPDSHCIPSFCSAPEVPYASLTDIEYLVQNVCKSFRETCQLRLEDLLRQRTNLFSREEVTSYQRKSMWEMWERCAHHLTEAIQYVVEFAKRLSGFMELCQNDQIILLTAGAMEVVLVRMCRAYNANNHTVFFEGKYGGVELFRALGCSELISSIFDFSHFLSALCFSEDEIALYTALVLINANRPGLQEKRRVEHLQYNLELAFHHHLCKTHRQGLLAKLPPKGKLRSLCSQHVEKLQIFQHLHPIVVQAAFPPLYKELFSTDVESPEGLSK

Structure (SMILES) | Potency
CCOc1ccccc1OCC(=O)Nc1nc2ccccc2[nH]1 | active: 5.62 µM
O=C(NCCC(c1ccccc1)c1ccccc1)c1cccs1 | inconclusive: 22.4 µM [activator, single point]
CC(=O)Nc1c(C(=O)N2CCN(c3ccccn3)CC2)cnn1-c1ccc(C)cc1 | inconclusive: 25.1 µM [activator, single point]
O=C(Nc1ncc(S(=O)(=O)c2ccc([N+](=O)[O-])cc2)s1)c1ccccc1F | inconclusive: 5.62 µM [activator, partial curve]
CCOc1ccc(-c2n[nH]c(=S)n2Cc2ccccc2)cc1 | active: 6.31 µM
COc1ccc(CC(=O)Nc2ccc(-c3cn4ccc(C)cc4n3)cc2)cc1 | inconclusive: 35.5 µM [inhibitor, single point]
COc1cc(OC)c(NC(=S)Nc2cccc(C(C)=O)c2)cc1Cl | inconclusive: 35.5 µM [inhibitor, single point]
O=C(NCc1ccc2c(c1)OCO2)c1cc2n(n1)C(C(F)(F)F)CC(c1ccc3c(c1)OCO3)N2 (stereo not given) | inconclusive: 3.55 µM [activator, single point]
CCOC(=O)CCN1C(=O)[C@@H]2[C@H]3C(=CC[C@H]2C1=O)C(=O)[C@H]1O[C@H]1[C@H]3O | active: 2.24 µM
CCOc1ccc(N/C=C/C(=O)c2ccc(C)cc2)c([N+](=O)[O-])c1 | active: 2 µM
O=C(N1CCCCC1)N1CCN(c2ccc(Cl)cc2)CC1 | inconclusive: 20 µM [activator, single point]
COc1cc(CC(C#N)(CO)c2nc3ccccc3[nH]2)ccc1OC(F)F (stereo not given) | inconclusive: 35.5 µM [activator, single point]
Nc1cc(S(=O)(=O)N2CCCCC2)ccc1Oc1ccccc1 | inactive
Cc1ccc(N=Nc2c(=O)[nH]n3c(C)cc(C)nc23)cc1 | inconclusive: 12.6 µM [inhibitor, partial curve, poor fit]
O=C(NCc1ccco1)C(=O)c1c[nH]c2ccccc12 | inconclusive: 3.55 µM [activator, full curve, poor fit]
CC(=O)Nc1ccc(S(=O)(=O)Nc2nc3c(s2)CCCC3)cc1 | inconclusive: 6.31 µM [activator, partial curve]
Cc1cc(N2CCN(C)CC2)n2cc(-c3ccc(F)cc3)nc2n1 | inactive
O=C(CC1SC(=Nc2ccccc2)N(Cc2ccccn2)C1=O)Nc1cccc(Cl)c1 (stereo not given) | inconclusive: 6.31 µM [activator, partial curve]
COc1ccccc1CNC(=O)c1cc(C(=O)CC(C)C)c[nH]1 | inconclusive: 35.5 µM [activator, single point]
COc1ccc(NC(=O)CSc2n[nH]c(-c3ccccn3)n2)cc1 | active: 15.8 µM
CCc1ccc(CN2CCC(Oc3ccc(C(=O)NCc4ccccn4)cc3)CC2)o1 | inactive
CC(=O)NC1N=C(C)N(c2ccccc2)C1=O (stereo not given) | inactive
CCOC(=O)CCCc1sc(N)nc1-c1[nH]c(=O)[nH]c1C | inactive
CC1=C(C)CS(=O)N(S(=O)(=O)c2ccc(Cl)cc2)C1 (stereo not given) | inconclusive: 25.1 µM [inhibitor, single point]
CCn1c2ccccc2c2cc(NC(=O)CSc3nnnn3-c3ccccc3)ccc21 | inconclusive: 14.1 µM [activator, single point]

6 compounds picked at random from the list so far:
Structure (SMILES) | Potency
O=C(NCc1ccc2c(c1)OCO2)c1cc2n(n1)C(C(F)(F)F)CC(c1ccc3c(c1)OCO3)N2 (stereo not given) | inconclusive: 3.55 µM [activator, single point]
Cc1ccc(N=Nc2c(=O)[nH]n3c(C)cc(C)nc23)cc1 | inconclusive: 12.6 µM [inhibitor, partial curve, poor fit]
O=C(NCc1ccco1)C(=O)c1c[nH]c2ccccc12 | inconclusive: 3.55 µM [activator, full curve, poor fit]
COc1ccc(NC(=O)CSc2n[nH]c(-c3ccccn3)n2)cc1 | active: 15.8 µM
CCc1ccc(CN2CCC(Oc3ccc(C(=O)NCc4ccccn4)cc3)CC2)o1 | inactive
CCn1c2ccccc2c2cc(NC(=O)CSc3nnnn3-c3ccccc3)ccc21 | inconclusive: 14.1 µM [activator, single point]

The listing continues:

Structure (SMILES) | Potency
O=C(Nc1ccc(N2CCOCC2)c(Cl)c1)c1ccccc1Cl | inactive
O=C(O)c1ccc2c(c1)C(=O)N([C@H](Cc1ccc(F)cc1)C(=O)O)C2=O | inactive
Cc1cc(-c2nnc(SCC(=O)Nc3ccc(C)c(C)c3)n2N)n[nH]1 | inactive
COc1ccc(C(CCNCc2ccc(N(C)C)cc2)c2ccccc2)cc1 (stereo not given) | inactive
O=C(Nc1ccc2nc(-c3cccnc3)[nH]c2c1)c1ccccc1F | inconclusive: 11.2 µM [activator, single point]
Cn1nnc(NC(=S)NC(=O)c2ccc(-c3ccc(Br)cc3)o2)n1 | active: 0.708 µM
COc1ccc(Cn2nnnc2C(c2cccs2)N2CCCCCC2)cc1 (stereo not given) | inconclusive: 1.26 µM [activator, partial curve]
COc1ccc(C2=Nn3c(nnc3-c3ccccc3)SC2)cc1OC | inconclusive: 5.62 µM [inhibitor, single point]
CNC(=S)NNC(=O)c1ccccc1F | inconclusive: 12.6 µM [inhibitor, single point]
COc1ccccc1NC(=O)C1=C(C)NC(=O)NC1c1ccccc1[N+](=O)[O-] (stereo not given) | inactive
CC(C)OC(=O)CSc1nnc(-c2cnccn2)n1C | inconclusive: 17.8 µM [inhibitor, single point]
CCOC(=O)[C@@H]1[C@H]2COc3cc(OC)ccc3[C@H]2N2C(=O)N(c3cccc(Cl)c3)C(=O)[C@]12C | inactive
CCc1cccc(C)c1NC(=S)NCc1ccc2[nH]c(C)cc2c1 | active: 3.98 µM
Cn1cccc1CC(=O)NNC(=S)Nc1ccc(Cl)cc1 | active: 11.2 µM
COc1ccc(Nc2ncnc3ccccc23)c(OC)c1 | inconclusive: 0.501 µM [activator, full curve, poor fit]
CSc1nc(=NC(C)=O)ss1 | active: 3.16 µM
COc1cc(OC)c(OC)cc1/C=N/NC(=O)c1cc(-c2cccn2C)n[nH]1 | inactive
Cc1occc1-c1nnc(SCC(=O)N2CCN(c3ccccc3)CC2)n1C | inactive
CC(C)N(C(=O)CSc1nc2ccccc2n1Cc1ccc(F)cc1)C(C)C | inconclusive: 35.5 µM [inhibitor, single point]
O=C(C1CCN(S(=O)(=O)c2cccc3cccnc23)CC1)N1CCN(c2ccc(Cl)cc2)CC1 | inactive
O=C(N/N=C/c1c(O)ccc2ccccc12)c1ccc(Br)o1 | active: 3.16 µM
CC1(C)Cc2ccccc2/C(=C/C(=O)N2CCCCCC2)N1 | inconclusive: 22.4 µM [inhibitor, single point]
COc1ccccc1NS(=O)(=O)c1cccc(NC(=O)Nc2ccc(Cl)cc2)c1 | inconclusive: 14.1 µM [activator, partial curve]
CCOC(=O)C1CCCN(C(=O)CCCOc2cc(=O)n(C)c3ccccc23)C1 (stereo not given) | inconclusive: 31.6 µM [inhibitor, single point]
Cc1nn(Cc2ccc([N+](=O)[O-])cc2)c(=O)n1N(C)c1ncc(C(F)(F)F)cc1Cl | inconclusive: 35.5 µM [activator, single point]

Structure (SMILES) | Potency
N#C/C(=C\c1ccc[nH]1)C(=O)c1ccccc1 | inconclusive: 12.6 µM [activator, partial curve]
Cc1cc(C)c(S(=O)(=O)/N=C2\C=CC(=O)C(Cl)=C2)c(C)c1 | inconclusive: 15.8 µM [inhibitor, single point]
COc1c(-c2ccc(O)c(O)c2)oc2cc(O)cc(O)c2c1=O | inconclusive: 5.01 µM [inhibitor, single point]
COc1ccccc1N1CCN(C(=O)COc2ccc(Cl)cc2Br)CC1 | inactive
O=C(COc1cccc2ccccc12)N1CCN(c2ccccc2)CC1 | inconclusive: 0.398 µM [inhibitor, single point]
CC(C)(C)OC(=O)COc1cc(O)c2c(=O)cc(-c3ccccc3)oc2c1 | inactive
COc1ccc2c(c1)nc(SCC(=O)c1cccs1)n2C | inconclusive: 31.6 µM [inhibitor, single point]
Cc1cccc(NC(=O)CN2C(=S)NC(C)(C)CC2C)c1 (stereo not given) | inconclusive: 35.5 µM [inhibitor, single point]
Cc1ccc(-n2[nH]c(C)c(/C=N/N3C(=O)c4cccc5cccc(c45)C3=O)c2=O)cc1 | active: 6.31 µM
CC(C)c1nnc(NC(=O)CC(=O)Nc2ccccc2C(=O)O)s1 | active: 11.2 µM
C/C=C\C=C/C(=O)Nc1cccc(C2=NOC3(C2)C[C@@H](C(N)=O)N(C(=O)C2(C)CC2)C3)c1 (stereo not given in full) | inactive
COc1ccc(CCNCC2C(Oc3ccc(Cl)cc3)C(=O)N2c2ccccc2C)cc1OC (stereo not given) | inactive
Cc1ccc2nc(-c3ccc(NC(=S)NC(=O)C(C)C)cc3)sc2c1 | active: 1.12 µM
COc1ccc(C(=O)NNC(=O)c2snnc2C)cc1 | inconclusive: 0.501 µM [activator, full curve]
CCc1ccccc1N(C(=O)c1snc(C(N)=O)c1N)C(C(=O)NCC1CCCO1)c1ccc(N(C)C)cc1 (stereo not given) | inactive
CCC(C)NC(=O)c1nc2c(nnn2Cc2ccccc2Cl)c(=O)[nH]1 (stereo not given) | inactive
CCOc1cc(/C=N/NC(=O)Cn2nc([N+](=O)[O-])cc2C)cc(Br)c1OCc1ccccc1C | inconclusive: 10 µM [inhibitor, partial curve]
Cc1ccccc1/C=C/C(=O)NCC(=O)N1CCC(N(C)C2CCCCC2C)CC1 (stereo not given) | inactive
CN(O)/C=c1/ccc2c(n1)C(=O)C=CC=2 | inconclusive: 35.5 µM [inhibitor, single point]
Cc1nc(Sc2ccccc2)c(C#N)c(C)c1[N+](=O)[O-] | inactive
CN(C)S(=O)(=O)c1cccc(COc2ncnc3c(Cl)cc(Cl)cc23)c1 | inactive
C=CC(COCc1ccccc1)N(C(=O)OC(C)(C)C)S(=O)(=O)c1ccccc1Br (stereo not given) | inactive
COc1ccc(CNC(=S)NNC(=O)c2cc3ccccc3o2)cc1 | inconclusive: 1.26 µM [inhibitor, partial curve, poor fit]
COc1ccc(-c2c(C)cc3oc(=O)cc(-c4ccccc4)c3c2C)cc1OC | inconclusive: 39.8 µM [activator, single point]
CC(CNC(=O)c1cc(COc2ccc3ncccc3c2)on1)c1ccccc1 (stereo not given) | inconclusive: 5.62 µM [activator, single point]
